Data: patent US12622975B2 (priority 2019, dated 2026)

Assay: general procedure: Fmoc solid-phase peptide synthesis; 2-chlorotrityl chloride resin (1.0-1.2 mmol/g); HBTU/DIPEA
Conditions: whole synthesis, LC-MS (Waters Acquity UPLC with Micromass detector), scale of the general procedure 0.5 mmol (500 mg resin)

Going from CLsu-GGGGG to CLsu-GGff, the “final LC-MS purity” value falls from 99.70% to 97.62%.

Going from CLsu-GGGG to CLsu-GGFF, the “final LC-MS purity” value falls from 99.29% to 98.76%.
